# Several values for one entry are separate records, joined by “and”; a condition that tells them apart may be missing. Equal values may be shown once. Hit rate of the full screen: of about 580,000 compounds, about 6,100 (1.1%) were called active. Inconclusive means that the source gave no clear call. Such entries were picked first, then a sample of the others. Calls come from the whole dose curve; as a rule, active = well fitted inhibition curve with a large enough effect; inconclusive = small, poorly fitted or top-dose-only effect, or another doubt; inactive = no such curve, though single readings can be large or run the other way. Potencies beside an inconclusive call are fits to weak or partial responses and may not hold up.
# By UniProt entry, the sequences of proteins in these tests, tags left out. Where a name states a change or a piece, a line headed by the entry shows the natural chain unless it says otherwise.
# UniProt P18054: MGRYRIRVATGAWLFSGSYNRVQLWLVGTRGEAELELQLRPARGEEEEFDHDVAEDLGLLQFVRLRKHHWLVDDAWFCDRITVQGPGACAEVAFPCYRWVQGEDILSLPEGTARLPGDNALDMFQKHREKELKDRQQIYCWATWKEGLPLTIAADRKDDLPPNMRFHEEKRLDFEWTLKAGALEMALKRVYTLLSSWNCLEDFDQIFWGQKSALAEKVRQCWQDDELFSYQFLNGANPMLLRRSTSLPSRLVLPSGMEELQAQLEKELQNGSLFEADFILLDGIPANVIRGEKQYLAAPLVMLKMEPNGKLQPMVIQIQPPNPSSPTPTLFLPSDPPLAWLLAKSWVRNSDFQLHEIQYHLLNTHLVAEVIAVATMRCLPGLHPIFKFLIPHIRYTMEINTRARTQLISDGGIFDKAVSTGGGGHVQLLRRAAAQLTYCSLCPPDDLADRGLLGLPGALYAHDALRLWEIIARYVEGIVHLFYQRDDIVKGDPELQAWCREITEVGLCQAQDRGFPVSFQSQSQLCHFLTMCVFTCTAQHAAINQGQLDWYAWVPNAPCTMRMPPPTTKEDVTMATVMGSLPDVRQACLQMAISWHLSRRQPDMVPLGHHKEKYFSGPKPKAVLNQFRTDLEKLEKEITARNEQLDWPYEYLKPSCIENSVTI
# Target: Polyunsaturated fatty acid lipoxygenase ALOX12 (Homo sapiens) (UniProt P18054)
# Assay: Primary qHTS assay for inhibitors of human arachidonate 12S-lipoxygenase (ALOX12): Round 2
# Details: purified 12hLO, xylenol orange hydroperoxide absorbance; activity change, negative = inhibition: at 108 µM (top of the series) unless noted
# How it was run: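 Hydroperoxide product was detected by ferrous iron/xylenol orange as the 573 to 405 nm absorbance ratio. Arachidonic acid at 40 uM (final) was turned over for 30 min at room temperature by 150 nM human 12hLO, pH 7.0 Hepes buffer, after 15 min compound preincubation.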
# % is set by controls: 0 for no effect and ±100 for the full control effect; potency is the fitted concentration of half-maximal effect.
SMILES,Potency,"activity change, negative = inhibition"
CN(C)Cc1ccccc1-c1ccc2ncnc(NCc3cccs3)c2c1,"inconclusive: 3.55 µM [inhibitor, full curve, poor fit]",–
COc1cc(NC(=O)C2CCN(S(=O)(=O)c3ccc4[nH]c(=O)oc4c3)CC2)cc(OC)c1,–,inactive: -4.75%
CCn1nnnc1SCC(=O)Nc1nc2ccc(OC)cc2s1,"inconclusive: 44.7 µM [inhibitor, partial curve, poor fit]",–
COc1ccc(C(=O)Nc2ccc3oc(C)nc3c2)c(OC)c1,–,inactive: -14.3%
CCCCCCC(C)NC(=O)COC(=O)c1n[nH]c(=O)c2ccccc12 (configuration not stated),–,inactive: -13.7%
COc1cc(-c2nnc(NC(=O)CCS(=O)(=O)c3ccc(F)cc3)o2)cc(OC)c1OC,–,inactive: 15.7%
CCC(C)S(=O)(=O)c1oc(-c2cccs2)nc1S(=O)(=O)c1ccccc1 (configuration not stated),–,inactive: 6.53%
Fc1cccc(COc2ccc(-c3nnco3)cc2)c1,–,inactive: 9.86%
CN(Cc1ccc(F)cc1)S(=O)(=O)c1cccc2nsnc12,–,inactive: 55.9%
C=C(C)Cn1c(SCC(=O)c2ccccc2)nc2c1c(=O)[nH]c(=O)n2C,"inconclusive: 44.7 µM [inhibitor, partial curve, poor fit]",–
Cc1ccc(CNC(=O)C2(C)CN(S(C)(=O)=O)CC(=O)N2c2cc(C)ccc2C)cc1 (configuration not stated),–,inactive: 5.58%
CN1CCc2nc3sc(C(=O)c4ccc(F)cc4)c(N)c3cc2C1,"inconclusive: 79.4 µM [inhibitor, partial curve, poor fit] and inconclusive: 4.47 µM [inhibitor, full curve, poor fit]",–
COc1cc(OC)cc(-c2nnc(Nc3nc4c(F)cccc4s3)o2)c1,–,inactive: 24.2%
Cc1cc(OC(C)C(=O)Nc2ccc3nsnc3c2)cc(C)c1Cl (configuration not stated),"inconclusive: 70.8 µM [inhibitor, single point]",–
COc1ccc(OC)c(NC(=O)Cc2c(C)c3c(O)cc(C)cc3oc2=O)c1,–,inactive: -24%
CCOC(=O)Cc1csc(NS(=O)(=O)c2ccc(Br)cc2)n1,–,inactive: -13.2%
CCOc1ccc(NC(=O)c2cc(SC)ccc2Cl)cc1,–,inactive: -2.09%
CN1C(=O)c2cccc3c(S(=O)(=O)Nc4cccc(C(=O)O)c4)ccc1c23,"inconclusive: 158 µM [inhibitor, single point]",–
Cc1nc(SCC(=O)O)c(C#N)c2c1CCCC2,"inconclusive: 39.8 µM [inhibitor, partial curve]",–
COc1ccc(NC(=O)c2ccc(NC(=O)CN3CCN(c4ccccc4O)CC3)cc2)cc1,–,inactive: -6.74%
Cn1cc(S(=O)(=O)N2CCc3ccccc32)cc1C(=O)Nc1ccc(Cl)cc1,–,inactive: 37.9%
O=C(O)C[C@@H]1CCN(C(=O)c2ccco2)C[C@@H]1CCN1CCN(c2ccccc2)CC1,"inconclusive: 31.6 µM [inhibitor, full curve, poor fit]",–

# Taken from the listing (five entries):
SMILES,Potency,"activity change, negative = inhibition"
Cc1ccc(CNC(=O)C2(C)CN(S(C)(=O)=O)CC(=O)N2c2cc(C)ccc2C)cc1 (configuration not stated),–,inactive: 5.58%
CN1CCc2nc3sc(C(=O)c4ccc(F)cc4)c(N)c3cc2C1,"inconclusive: 79.4 µM [inhibitor, partial curve, poor fit] and inconclusive: 4.47 µM [inhibitor, full curve, poor fit]",–
COc1cc(OC)cc(-c2nnc(Nc3nc4c(F)cccc4s3)o2)c1,–,inactive: 24.2%
Cc1cc(OC(C)C(=O)Nc2ccc3nsnc3c2)cc(C)c1Cl (configuration not stated),"inconclusive: 70.8 µM [inhibitor, single point]",–
COc1ccc(OC)c(NC(=O)Cc2c(C)c3c(O)cc(C)cc3oc2=O)c1,–,inactive: -24%

# — PubChem BioAssay AID1671190 (National Center for Advancing Translational Sciences (NCATS), 2021)
